Data as given in PubChem BioAssay AID1224830 (NIAID, 2016)
The deposit covers about 18,000 reagents; below is a random part of them. Of all reagents, about 2,900 (16%) are marked active. 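Calls are made per well; low scores hint the gene aids the LPS response, high scores that it dampens it.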 Entries without a mark were called inactive. Repeated entries: four replicate wells of each siRNA pool. Reagent sequences are not shown.

Test: 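Regulators of TLR4 signalling towards TNF-alpha in macrophage-like cells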 (primary screen)
System: human THP-1 monocytic leukaemia cells, TNF dual-luciferase reporter clone, PMA-differentiated to macrophage-like cells
Reagents: siRNA pool against human genes, 50 nM
Timing: LPS for 4 h, given about 3 days after siRNA transfection
Treatment: bacterial LPS (TLR4 ligand), 10 ng/ml
Read-out: 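TNF firefly reporter luminescence divided by renilla, normalised to the plate median, then turned into a robust z-score for each replicate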
Direction: TNF reporter robust z-score: higher = stronger TNF reporter response to LPS
Hit rule: 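Each well counts as active if its z-score is over 2.8 or under -1.5; controls are left without a call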

With ORC6, what does the deposit list?
TNF reporter robust z-score: -0.7

What is on record for ORC6?
TNF reporter robust z-score: -0.09

What did the screen give for ORC6?
TNF reporter robust z-score: 0.33

How did the screen score ORC6?
TNF reporter robust z-score: 0.24

Which result is listed for PLEKHG1?
TNF reporter robust z-score: -0.43

With PLEKHG1, what does the deposit list?
TNF reporter robust z-score: -0.23

How did the screen score PLEKHG1?
TNF reporter robust z-score: -1

What did the screen give for PLEKHG1?
TNF reporter robust z-score: -0.79

For PIK3CG, how do the results read?
TNF reporter robust z-score: -1.73 (active)

What is on record for PIK3CG?
TNF reporter robust z-score: 0.18

How did the screen score PIK3CG?
TNF reporter robust z-score: -0.11

Which result is listed for PIK3CG?
TNF reporter robust z-score: -0.31

What did the screen give for BRMS1L?
TNF reporter robust z-score: 0.66

With BRMS1L, what was measured?
TNF reporter robust z-score: -0.02

With BRMS1L, what does the deposit list?
TNF reporter robust z-score: -0.81

How did the screen score BRMS1L?
TNF reporter robust z-score: 1.91

With SDHAF4, how do the results read?
TNF reporter robust z-score: 0.53

For SDHAF4, how do the results read?
TNF reporter robust z-score: -0.59

With SDHAF4, how do the results read?
TNF reporter robust z-score: -0.77

With SDHAF4, what does the deposit list?
TNF reporter robust z-score: -1.02

Targets listed so far whose gene name starts with O or o (4):
ORC6 → TNF reporter robust z-score = -0.7
ORC6 → TNF reporter robust z-score = -0.09
ORC6 → TNF reporter robust z-score = 0.33
ORC6 → TNF reporter robust z-score = 0.24
